Taken from: PubChem BioAssay AID652259 (Drosophila RNAi Screening Center, 2013)

Aim: 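Identify new Wingless signalling regulators in fly cells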 (primary screen)
Cells: Drosophila clone 8 imaginal disc epithelial cells
Reagents: long dsRNA against Drosophila genes
Conditions: pathway stimulated by co-transfected Wingless expression plasmid
Read-out: 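Firefly luciferase from a tcf-site Wingless reporter, measured alongside co-transfected Renilla luciferase that tracks transfection; pathway stimulated by a Wingless plasmid; the firefly-to-Renilla ratio is not deposited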
Scale: firefly reporter light: higher = more Wg reporter light, before normalisation; Renilla control light: higher = more transfected or surviving cells
Call rule: 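Strong candidates differ from their plate mean by at least two out of four per-plate statistical tests; weak candidates meet just one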
Calls: active = candidate regulator (raises or lowers reporter); inactive = not a candidate
The screen tested about 22,000 reagents; shown is an unselected part of those with a known target gene and a result. Of all reagents, 233 (1.1%) got an active call. 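Light values are raw, unnormalised plate reads; the ratio scores behind the reporter calls were not deposited.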 A number with no mark means an inactive call. Reagents against one gene are numbered here. Not stated in the record: the amount of reagent, the time to read-out, the dose of the treatment.

CG13766: firefly reporter light, replicate 1 = 2253; firefly reporter light, replicate 2 = 5520; Renilla control light, replicate 1 = 688; Renilla control light, replicate 2 = 1653
Ubc7: firefly reporter light, replicate 1 = 19265; Renilla control light, replicate 1 = 7880
TwdlX: firefly reporter light, replicate 1 = 4576; Renilla control light, replicate 1 = 1702
CG12111: firefly reporter light, replicate 1 = 22489; Renilla control light, replicate 1 = 11905
CG7567: firefly reporter light, replicate 1 = 8555; Renilla control light, replicate 1 = 2774
IP3K1: firefly reporter light, replicate 1 = 6843; Renilla control light, replicate 1 = 5021
EloC: firefly reporter light, replicate 1 = 4528; Renilla control light, replicate 1 = 2354
CG7236: firefly reporter light, replicate 1 = 1633; firefly reporter light, replicate 2 = 4345; Renilla control light, replicate 1 = 786; Renilla control light, replicate 2 = 1809
CG4582: firefly reporter light, replicate 1 = 16201; Renilla control light, replicate 1 = 13972
CG11125: firefly reporter light, replicate 1 = 3307; firefly reporter light, replicate 2 = 5139; Renilla control light, replicate 1 = 867; Renilla control light, replicate 2 = 1985
CG5860: firefly reporter light, replicate 1 = 13392; Renilla control light, replicate 1 = 4312
CG7987: firefly reporter light, replicate 1 = 4374; Renilla control light, replicate 1 = 1771
RpS28a: firefly reporter light, replicate 1 = 8422; Renilla control light, replicate 1 = 3849
Not10: firefly reporter light, replicate 1 = 4854; Renilla control light, replicate 1 = 2344
velo #1: firefly reporter light, replicate 1 = 7604; Renilla control light, replicate 1 = 529
velo #2: reporter change call, replicate 1 = Wg reporter activity raised; firefly reporter light, replicate 1 = 12573; Renilla control light, replicate 1 = 1335
CkIIalpha-i1: firefly reporter light, replicate 1 = 12201; Renilla control light, replicate 1 = 4249
polo #1: firefly reporter light, replicate 1 = 9344; Renilla control light, replicate 1 = 3484
polo #2: firefly reporter light, replicate 1 = 5.90e5; firefly reporter light, replicate 2 = 4.79e5; Renilla control light, replicate 1 = 1.34e5; Renilla control light, replicate 2 = 1.18e5
Sara: firefly reporter light, replicate 1 = 1707; firefly reporter light, replicate 2 = 5315; Renilla control light, replicate 1 = 834; Renilla control light, replicate 2 = 1942
mRpL47: firefly reporter light, replicate 1 = 15154; Renilla control light, replicate 1 = 3190
Cpr49Ad: firefly reporter light, replicate 1 = 8089; Renilla control light, replicate 1 = 4007
CG14669 #1: firefly reporter light, replicate 1 = 2336; Renilla control light, replicate 1 = 444
CG14669 #2: firefly reporter light, replicate 1 = 2551; Renilla control light, replicate 1 = 1365
CG14669 #3: firefly reporter light, replicate 1 = 4134; Renilla control light, replicate 1 = 2418
CG14669 #4: firefly reporter light, replicate 1 = 16720; Renilla control light, replicate 1 = 3696

2 entries from above, sorted by “firefly reporter light, replicate 1”, descending:
CG4582: firefly reporter light, replicate 1 = 16201; Renilla control light, replicate 1 = 13972
CG11125: firefly reporter light, replicate 1 = 3307; firefly reporter light, replicate 2 = 5139; Renilla control light, replicate 1 = 867; Renilla control light, replicate 2 = 1985
